According to US20240240208A1, “COMPOSITIONS AND METHODS FOR INCREASING EFFICIENCY OF PRECISE EDITING REPAIR” (New York Genome Center, Inc., priority 2021, published 2024):
Counter-ions that a name gives are not always drawn. At least one compound was matched to its structure with a doubt left.

Tested on: HEK293 DNA-PK KO cells
Experiment: HDR levels by GFP-to-BFP conversion assay in DNA-PK KO cells clone 22 treated with small molecule inhibitors
Format: cell-based, human
Conditions: 1 μM inhibitor added with Cas9, guide RNA and ssDNA encoding BFP, drugs washed off 24 hours later
Description: Eighteen targets were targeted with 38 drugs. […] Small molecule inhibitors were added in the media simultaneously with the introduction of Cas9, guide RNA and single-stranded DNA (ssDNA) encoding BFP. HDR levels were measured with the BFP-to-GFP assay. […] Precise repair levels are shown as a % of BFP+ cells over DMSO.
DNA-PK KO cells were tested with the noted compounds at compounds at 10 μM, 5 μM, 1 μM, 0.5 μM, 0.1 μM, and 0.01 μM, as for FIGS. 4 and 6. HDR levels are shown as a % of BFP+ cells over DMSO 24 hours after drug treatment.
To study the efficiency of HDR in human cells we used the green fluorescent protein (GFP) to blue fluorescent protein (BFP) pair, where conversion from GFP to BFP requires editing of 2 nucleotides. The CRISPR screens were performed on a K562 human cell line stably expressing a green fluorescent protein (GFP). GFP was targeted with Cas9, guide RNA targeting GFP, and a single stranded DNA (ssDNA) encoding BFP. Efficiency of HDR in cells carrying specific genetic perturbations (genetic inhibition or activation) were identified using fluorescence-activated cell sorting (FACS), followed by guide RNA recovery and quantification using next-generation sequencing (NGS).
The small molecules were tested on DNA-PK knockout HET293 cells at concentrations of 10 μM or 1 μM. Eighteen targets were targeted with 38 drugs. […] HDR levels were measured with the BFP-to-GFP assay. […]

## CCCCCCCCc1ccc(CCC(N)(CO)CO)cc1 [Fingolimod (FTY720) HCl, Fingolimod]
  HDR levels (% of BFP+ cells over DMSO): increased HDR levels
